Screening data, single-dose tests

The chains behind the UniProt entries cited, without tags or fusion partners.
UniProt P9WNZ1, whole entry: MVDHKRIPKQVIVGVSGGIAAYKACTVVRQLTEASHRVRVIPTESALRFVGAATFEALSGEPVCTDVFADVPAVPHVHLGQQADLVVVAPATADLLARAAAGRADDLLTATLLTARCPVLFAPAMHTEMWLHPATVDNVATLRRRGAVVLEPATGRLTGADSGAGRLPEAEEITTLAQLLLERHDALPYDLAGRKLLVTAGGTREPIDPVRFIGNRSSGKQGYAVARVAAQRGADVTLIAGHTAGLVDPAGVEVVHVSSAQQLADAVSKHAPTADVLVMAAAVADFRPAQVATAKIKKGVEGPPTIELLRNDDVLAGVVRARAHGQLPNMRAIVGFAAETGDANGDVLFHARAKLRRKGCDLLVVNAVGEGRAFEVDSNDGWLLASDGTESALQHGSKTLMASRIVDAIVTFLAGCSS

Toxoplasma: 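Assay of Toxoplasma gondii numbers, read through their beta-galactosidase reporter with a colour substrate. Tested at 10 µM. The record gives no direction; the compounds picked for IC50 retests had high values, so higher reads as fewer parasites. About 67,000 compounds were tested under these conditions; 0.38% (about 260) showed 50% or more at least once.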
CoaBC: 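Enzyme assay of CoaBC with a phosphate dye (Biomol Green) read at 650 nm. Target: Coenzyme A biosynthesis protein CoaBC, Mycobacterium tuberculosis (UniProt P9WNZ1). Tested at 30 µM. Direction is inferred from only a few compounds that gave an IC50; most scored high, so higher reads as stronger inhibition. Most strong results did not repeat in a second test. Size under these conditions: about 67,000 compounds, about 40 of them at 50% or above in at least one test.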

Results are given as percent effect.
The record does not define 0% and 100%; most values in the screen are far below 50% and negative numbers occur (in some assays of this library far below -100).
Compounds were drawn at random from those tested, without regard to their results.
Two or more numbers in one place are separate tests of the same structure; such repeats can differ widely.
A dash means the value is not listed here; it may have been measured.

compound	Toxoplasma	CoaBC
O=C1CCOCCN1Cc1ccc(Cl)c(Cl)c1	-19.7	5.342
Cc1ccc(CN(CCCN2CCOCC2)Cc2cnn(C)c2)o1.O=C(O)CC(O)(CC(=O)O)C(=O)O	31.25	-
CC(C)C(=O)N1CCCC(c2cc(C(F)F)n3ncnc3n2)C1.Cl (centres unmarked)	16.59	-
CNC(=O)C1CCCCN1C(=O)CCn1cnc2sccc2c1=O (centres unmarked)	12.61	3.125
CN(C(=O)c1ccc[nH]1)C1CCC(NC(=O)OC(C)(C)C)CC1 (centres unmarked)	15.65	-1.951
Cc1ccc(C2(CN(C)Cc3sccc3C)CCNCC2)nc1	0.2875	-40.13
COc1cccc(F)c1CN1CCC(c2nccc(C)n2)C1 (centres unmarked)	12.12	7.645
CC1C(=O)Nc2cccnc2N1S(=O)(=O)c1ccc(C#N)c(Cl)c1 (centres unmarked)	-10.52	6.925
CCOCCCn1c(NC(=O)c2ccc(C)nc2)nc2ccccc21	0.5294	2.651
COCC1CN(c2ncc(F)cn2)Cc2cnn(C)c21 (centres unmarked)	-	1.98
O=C(CC1CCCO1)NCCc1ccc(Br)cc1F (centres unmarked)	0.5895	6.746
Cc1cnc(CN(C)C2CCN(Cc3nccn3C)C2)o1 (centres unmarked)	-5.212	-2.872
O=C1N(c2ccc(Br)cc2)Cc2n[nH]c(=O)n21	-5.361	-15.72
CC(C)NC(=O)C1CN(C(=O)N2CCCC2)CC12CCOCC2 (centres unmarked)	-4.971	3.99
CC(C)c1ncc2c(n1)CN(Cc1nc(-c3ccoc3)no1)CC2	-1.616	8.432
CC1CCCN(CCCNC(=O)c2ccc(N(C)S(C)(=O)=O)cc2Cl)C1 (centres unmarked)	10.55	3.299
CO[C@H]1CCN(C(=O)c2ccc3oc(C)cc3c2)C[C@@]12CCCO2	-23.87	-0.7282
O=C(O)C(F)(F)F.O=C(c1cccnc1)N1CCOC2(COCCN(c3cncnc3)C2)C1 (centres unmarked)	0.6439	-
CCc1cnc(CN(C(C)=O)C2CCN(CCS(C)(=O)=O)C2)o1 (centres unmarked)	3.14	7.595
O=C1CC(c2ccc3c(c2)OCO3)c2c(n3ccsc3nc2=O)N1 (centres unmarked)	15.11	3.283
CCCc1cnc(C)nc1N1CCC(Cn2cc(C(C)O)nn2)CC1 (centres unmarked)	13.25	3.947
COc1cc(C(=O)NS(=O)(=O)c2ccc(C#N)cc2)ccc1C	16.86	3.448
COc1ncccc1CN1CCc2[nH]nc(C(=O)N3CCCC3C)c2C1 (centres unmarked)	-	2.545
CC(NC(=O)NCc1cccnc1N1CCCCC1)c1nccs1 (centres unmarked)	2.118	3.133
Cc1ncoc1C(=O)N1C[C@@H]2COC[C@]2(c2nnc(C3CC3)o2)C1	-	5.057
[H][C@@]12CS(=O)(=O)C[C@]1([H])N(Cc1ccc(OC)c(O)c1)CCN2CC1CC1	3.475	-
Cc1noc(C)c1CN1C[C@H]2CNC[C@H]2C1	-	1.22
CCOC(=O)c1cc2n(n1)CCCO2	-12.86	-3.065
CN1CCN(C)C2(CCN(Cc3ccsc3)CC2)C1=O	-	4.471
CCc1ncc(CN2CCOC(Cc3cccc(F)c3)C2)cn1 (centres unmarked)	-6.852	1.635
COCCN1CCN(C(=O)c2cc(C(C)C)on2)[C@H]2CS(=O)(=O)C[C@H]21	-	-1.266
CC(C)(C)CNC[C@H]1Cn2ccnc2CO1	-8.641	5.077
O=C(O)C(F)(F)F.[H][C@@]12CCN(Cc3ccc(C)o3)[C@@]1([H])CCC(=O)N2	-18.16	-
CCN(C)c1ncnc2c1CCN(C(=O)c1ccccn1)CC2	-	-0.4894
CCn1cc(S(=O)(=O)N2CCCCCC2c2cc(C)on2)cn1 (centres unmarked)	-0.3906	0.9709
COc1cc(N2CCc3ncnc(-c4ccoc4)c3CC2)ncn1	4.543	15.37
O=C(CO)N1CCC(c2cncc(-c3cccc(Cl)c3)n2)CC1	-1.941	22.8 and 15.87
CCC(C(=O)NC1CCCCC1)n1ccc2ncccc2c1=O (centres unmarked)	11.49	4.689
Cc1cc(C)c(CNC(=O)N2CCC(N3CCCC3)CC2)c(=O)[nH]1	-9.219	-0.7335
O=C(CN1CCOC1=O)N1CC[C@@H](c2ccc3ccccc3c2)[C@H](O)C1	4.789	-0.2179
O=C(Nc1ccccc1OC1CCOC1)c1ccon1 (centres unmarked)	-2.681	3.661
CCN1CCN(c2nc(C(C)C)nc3c(C)nn(CC)c23)CC1	-9.983	-11.82
CCNc1ncc(C(=O)NCCc2csc(-c3ncccn3)n2)cn1	1.333	-0.8589
CCOCc1ccccc1NC(=O)NC1CCN(c2ccccc2)C1 (centres unmarked)	0.5036	4.628
Cc1csc(CCNC(=O)C2CCCN(C3CCOCC3)C2)n1 (centres unmarked)	-4.568	-0.8464
Cc1ccc(CNC(=O)Nc2nnc(C(C)C)s2)n1C	6.671	10.84
[H][C@@]12CCN(C(=O)C3CCCC3)[C@]1([H])C(=O)N(c1ccc(C)cc1)C(=O)N2	-0.3346	-

Some entries from above, unchanged:

compound,Toxoplasma,CoaBC
CCN(C)c1ncnc2c1CCN(C(=O)c1ccccn1)CC2,-,-0.4894
CCc1ncc(CN2CCOC(Cc3cccc(F)c3)C2)cn1 (centres unmarked),-6.852,1.635
Cc1ncoc1C(=O)N1C[C@@H]2COC[C@]2(c2nnc(C3CC3)o2)C1,-,5.057
Cc1ccc(CN(CCCN2CCOCC2)Cc2cnn(C)c2)o1.O=C(O)CC(O)(CC(=O)O)C(=O)O,31.25,-
CC(C)c1ncc2c(n1)CN(Cc1nc(-c3ccoc3)no1)CC2,-1.616,8.432

Data taken from ChEMBL document CHEMBL3988442, “University of Dundee, Small-Polar-MMV Screening Library” (2021).